The record followed here is article PMC12040169 (PLOS Biology, 2025).

Molecules are shown by their SMILES. The list shows a part of the results.

The experiment deals with T1, CTL2-GFP (C. trachomatis L2/434/Bu, GFP-expressing).
T1 construct: L2/434/Bu, GFP-expressing
Also noted: species or system HeLa; Intracellular C. trachomatis growth in HeLa cells, bulk GFP fluorescence relative to DMSO. Conditions: bulk GFP, single well; 28.5 h, 10 µM; inhibitor.
With `O=C1CCC(=O)N1CCOc1nccnc1OC1CCN(CCc2c[nH]c3ccccc23)CC1` [CBK084355], the “% of control remaining” value stood at 108.635%.
Take `Cc1ccc2c(c1)oc(=O)n2CCNC(=O)CC1c2ccccc2Oc2ccccc21` [CBK286194]: the “% of control remaining” value is recorded as 112.114%.
`O=C1NC2(CCSC2)C(=O)N1Cc1noc(-c2cccs2)n1` (stereo not shown) [CBK306225]: the “% of control remaining” value was 169.787%.
The result for `CN1CCN(c2ccc3ccn(S(=O)(=O)c4ccccc4Br)c3n2)CC1` [CBK200019C] reads 94.2911%; that for `NC1CC(c2cc(NCc3cn4ccccc4n3)ncn2)C1` (stereo not shown) [CBK306631], 104.705%; that for `COc1ccccc1NC(=O)c1sc2nc(N3CCOCC3)c3c(c2c1N)CCCC3` [CBK269247], 96.6458%.
On to `COC(=O)CNC(=O)c1ccc(S(=O)(=O)N2CCOCC2)cc1` [CBK264873], for which the “% of control remaining” value was determined as 121.498%.
For `CS(=O)(=O)c1ccc(CN2C(=O)CC3(CCN(C(=O)Cc4cccs4)CC3)C2=O)cc1` [CBK155013], the “% of control remaining” value turned out to be 130.541%.
Regarding `CCCC(=O)Nc1ccc(OCc2nnc(C)o2)c(C(C)=O)c1` [CBK305943], the “% of control remaining” value is listed as 84.4927%.
The result for `O=C(CN(c1cccc(Cl)c1)S(=O)(=O)c1ccccc1)NN=C1CCCCC1` [CBK262470] reads 99.0267%; that for `Cc1cc(C)n2nc(C(=O)NCc3ccccn3)cc2n1` [CBK269015], 80.0955%.
`CCNc1ncnc2c1oc1ccccc12` [CBK263298]: the “% of control remaining” value is listed as 115.227%.
With `COc1cc(C(=O)N2CCC3(CC2)CC(=O)c2ccc(C)cc2O3)ccc1O` [CBK166045], the “% of control remaining” value is on record as 176.655%.
Turning to `CCN(CC)C(=O)C1CCCN(C(=O)NCCCSC)C1` (stereo not shown) [CBK156118], the “% of control remaining” value turned out to be 89.1322%.
Take `CCOc1ccccc1-n1c(CCC(=O)O)ccc1-c1cccs1` [CBK264794]: the “% of control remaining” value is recorded as 127.078%.
For the compound `CCOC(=O)C1CCN(Cn2nc(-c3cccs3)oc2=S)CC1` [CBK295165], the “% of control remaining” value was determined as 130.535%.
In the case of `COc1ccc([C@H]2CN(C(=O)c3ccccc3)[C@@H]3CCN(Cc4ccccc4C)C[C@H]23)cc1` [CBK285583], the “% of control remaining” value stood at 59.6086%.
As to `CCOC(=O)CN1N=C(C)C(Cc2c(Cl)cccc2Cl)(OC)C1=O` (stereo not shown) [CBK112646], the “% of control remaining” value is given as 105.291%.
For the compound `Nc1cccc(-c2cn(C[C@H]3CC4CCN3C[C@@H]4C(=O)NC3CCCCC3)nn2)c1` (stereo partly shown) [CBK289083], the “% of control remaining” value is 138.624%.
As to `CS(=O)(=O)NCCCNc1ccc(C(F)(F)F)cc1[N+](=O)[O-]` [CBK263741], the “% of control remaining” value stood at 118.232%.
Take `CS(=O)(=O)c1ccc(-c2c[nH]c([C@@H]3COCCN3Cc3ccc(C(=O)O)cc3)n2)cc1` [CBK289306]: the “% of control remaining” value is 129.537%.
On to `CSCCCNC(=O)N1CCCC(CO)C1` (stereo not shown) [CBK156031], for which the “% of control remaining” value was 111.33%.
For the compound `COc1ccc(NC(=O)c2nn(-c3nc4ccccc4o3)c3ccccc23)cc1` [CBK048492], the “% of control remaining” value is 104.304%.
For the compound `CCCCc1c(C)nc2ccc(OC)cc2c1SCCC(=O)O` [CBK263888], the “% of control remaining” value was found to be 100%.
For the compound `NC(=O)c1cc(C(=O)c2ccccc2F)c[nH]1` [CBK017284], the “% of control remaining” value is reported as 103.705%.
Turning to `Cn1c(CNC(=O)c2ncoc2-c2cccs2)nc2ccccc21` [CBK283985], the “% of control remaining” value is listed as 121.297%.
`Cc1nc(C)c(C(=O)NCc2cccnc2N(C)C2CCCCC2)s1` [CBK306885]: the “% of control remaining” value worked out at 145.246%.
In the case of `NC(=S)NNC(=O)Nc1ccccc1` [CBK261595], the “% of control remaining” value came out at 105.399%.
The result for `O=C(Nc1ccc(NC(=O)c2cc(O)nc3ccccc23)cc1)c1ccccc1` [CBK269722] reads 125.64%; that for `Nc1cc(NC(=O)c2cccc(C(=O)Nc3ccc(Cl)c(N)c3)c2)ccc1Cl` [CBK261379], 102.431%.
On to `O=C(N/N=C\c1ccc([N+](=O)[O-])o1)c1nc(-c2ccccc2)cc(-c2ccccc2)n1` [CBK261958], for which the “% of control remaining” value is reported as 4.779%.
The result for `CC1(C)CC(=O)c2sc(NC(=O)c3ccc(OC(F)(F)F)cc3)nc2C1` [CBK144102] reads 111.971%.
The same measure for `CC1CC(NC(=S)NCc2csc3ccccc23)CC(C)(C)C1` (stereo not shown) [CBK013824]: 126.014%; for `COc1ccc(Cl)cc1/C=C/C(=O)NCc1ccc(C(=O)O)cc1` [CBK286908]: 150.674%.
As to `Fc1ccc(CSc2nc3ccccc3nc2C(F)(F)F)cc1` [CBK107199], the “% of control remaining” value came out at 100%.
`O=C(Cc1cccc(F)c1)N1CCC(O)(c2cccnc2F)CC1` [CBK284362]: the “% of control remaining” value was found to be 107.3%.
Take `Cn1c(SCC(=O)Nc2ccc(Br)cc2C(F)(F)F)nnc1-c1ccncc1` [CBK265905]: the “% of control remaining” value was 119.915%.
As for `COC(=O)c1cccc(Oc2nc(OC)cc(OC)n2)c1` [CBK092219], the “% of control remaining” value is given as 100.726%.
Turning to `CCn1ncc(CN2CCN(C(=S)Nc3ccccc3C(F)(F)F)CC2)c1C` [CBK266968], the “% of control remaining” value was 170.344%.
As for `COc1cc(-c2nc(N)cc3ccccc23)cc(OC)c1OC` [CBK085726], the “% of control remaining” value was 86.9063%.
In the case of `COc1cc(/C=N/NC(=O)c2ccncc2)ccc1OC(=O)c1cccs1` [CBK262278], the “% of control remaining” value is recorded as 87.7817%.
For the compound `NC(=S)Nn1c(CCC(=O)O)ccc1-c1ccccc1` [CBK265942], the “% of control remaining” value stood at 119.27%.
In the case of `Nc1ccc(CCNC(=O)c2cnc(-c3cccc(C(F)(F)F)c3)c(-c3ccncc3)c2)cc1` [CBK037580], the “% of control remaining” value was 237.281%.
Turning to `Cc1ccc(OC(C)c2nc(-c3nonc3N)no2)cc1C` (stereo not shown) [CBK025698], the “% of control remaining” value stood at 105.773%.
As for `Cc1ccc(CS(=O)(=O)N2CCC3(CC2)CNC(=O)C3)cc1` [CBK283344], the “% of control remaining” value is given as 113.382%.
For `COc1ccccc1CNC(=O)c1cnc2scc(C)n2c1=O` [CBK287293], the “% of control remaining” value is 89.4875%.
As for `O=C(c1ccccc1-n1cccc1)N1CCCC1` [CBK149608], the “% of control remaining” value is recorded as 107.685%.
For `CC(C)N1CC[C@H]2CN(C(=O)CCC(=O)O)CC[C@H]2CC1=O` [CBK288789], the “% of control remaining” value came to 122.623%.
The same measure for `Clc1cccc(CNc2cncc(-c3cccs3)n2)c1` [CBK065609]: 95.5357%; for `CN(C)CCNC(=O)Cn1c(-c2ccc(F)cc2)cc2cccnc21` [CBK284820]: 83.2915%; for `Cc1c(C(=O)O)sc(S(=O)(=O)N2CCN(C(=O)Cc3ccccc3)CC2)c1C(=O)O` [CBK297148]: 103.133%.
For `CN1CCN(NC(=O)c2cccc(COc3ccccc3Cl)c2)CC1` [CBK265765], the “% of control remaining” value is on record as 135.61%.
In the case of `CCOc1cc(F)ccc1NC(=O)CC1CCN(c2nc(C)cc(C)n2)CC1` [CBK285958], the “% of control remaining” value was found to be 102.204%.
For `O=C1CN(C(=O)NCC2CCCCC2)CCN1` [CBK155854], the “% of control remaining” value was 113.102%.
For `Cc1cc(/C=C(/C#N)c2ccc([N+](=O)[O-])cc2)c(C)n1-c1ccc(S(N)(=O)=O)cc1` [CBK266737], the “% of control remaining” value was found to be 135.731%.
For the compound `CN(Cc1ccc(-c2ccc(CO)cc2)nc1)C1CCN(C(=O)OC(C)(C)C)CC1` [CBK173453], the “% of control remaining” value was 126.132%.
For the compound `CC(C)(C)C(=O)N1CCc2c([nH]c3ccccc23)C12CCNC2` (stereo not shown) [CBK059462], the “% of control remaining” value is 122.191%.
The same measure for `CC1(C)Cc2c(sc(NC(=O)c3ccccc3Cl)c2C(=O)O)CO1` [CBK126806]: 93.817%.
As for `O=C1CN(C(=O)c2cc(-c3ccncc3)nc3ccccc23)CCN1` [CBK304370], the “% of control remaining” value turned out to be 104.82%.
On to `Cn1c(O)c(CCNc2cc(C3CCOC3)ncn2)cnc1=O` (stereo not shown) [CBK307648], for which the “% of control remaining” value is 76.1679%.
In the case of `c1ccc(-c2nnc(SCc3nnc(-c4ccccc4)o3)[nH]2)cc1` [CBK270003], the “% of control remaining” value was found to be 109.105%.
The same measure for `COCc1cccc(-c2ncc(OCCN3CCCC3=O)nc2N)c1` [CBK145110]: 110.018%; for `COc1cccc(Cc2cccc(C3CCN(C(=O)Cc4ccccc4)CC3)n2)c1` [CBK286147]: 109.261%.
The result for `Cc1cc(C(F)(F)F)n2ncc(C(=O)N3CCCC3c3ccco3)c2n1` (stereo not shown) [CBK306557] reads 94.6172%; that for `c1ccc(-c2nc(C3CC3)n3ccccc23)cc1` [CBK149257], 123.643%.
The same measure for `O=C1NC2(CCOCC2)C(=O)N1Cc1ncc(-c2cccs2)o1` [CBK304187]: 131.395%.
Take `Cc1ccc(S(N)(=O)=O)cc1C(=O)OCC(=O)c1ccccc1` [CBK264588]: the “% of control remaining” value came out at 90.1657%.
The same measure for `C=C(C)Cn1c(=O)nc(N)c2c3c(sc21)CCC3` [CBK287986]: 117.075%.
Consider `O=S(=O)(CC(F)(F)F)Nc1cccc(-c2nnn[nH]2)c1` [CBK154272], for which the “% of control remaining” value came to 109.23%.
In the case of `CCCCCCN1CCC2CN(CCCC(=O)c3ccc(F)cc3)CCN2C1=O` (stereo not shown) [CBK024890C], the “% of control remaining” value came out at 124.486%.
On to `Cc1csc(-c2cn3ccnc3c(N(C)CCN(C)C)n2)c1` [CBK066553], for which the “% of control remaining” value worked out at 190.938%.
In the case of `Cn1c(SCC(=O)c2ccccc2)nnc1-c1ccc(NC(=O)c2ccccc2Cl)cc1` [CBK264357], the “% of control remaining” value is 134.275%.
As to `CC1=C[C@@H](CNC(=O)c2ccncc2)[C@H](C(C)C)C[C@H]1CC(=O)N1CCOCC1` [CBK289052], the “% of control remaining” value is reported as 134.044%.
The result for `Cc1nn(C)c2nc(NCc3ccc(C(=O)N4CCCCC4)cc3)sc12` [CBK306826] reads 109.992%; that for `O=C(CCc1cccnc1)N1CCCCC1c1nc2cc(F)ccc2[nH]1` (stereo not shown) [CBK291106], 85.744%.
Consider `COC(=O)CCC1(C)CN(C)CCC1=O` (stereo not shown) [CBK028494], for which the “% of control remaining” value is recorded as 128.192%.
`CC(C)(CN)CN(Cc1ccccc1C(F)(F)F)C(=O)NCc1ccc(F)cc1` [CBK002471C]: the “% of control remaining” value was 105.937%.
The same measure for `Cc1ccccc1Cc1cccc(C2CCN(C(=O)Cc3ccccc3)CC2)n1` [CBK285625]: 123.052%.
With `O=C(Cc1cccnc1)N1CCC(Cc2ccccc2)CC1` [CBK200183], the “% of control remaining” value is 161.033%.
